Experimental data as given in US20150269307A1, “TARGET INHIBITION MAP SYSTEM FOR COMBINATION THERAPY DESIGN AND METHODS OF USING SAME” (Texas Tech University System, priority 2014, published 2015).
For at least one compound, name, drawing or mass did not settle the structure.

System: human patient-derived xenografts
Assay: Xenograft-derived chemical screen (Supplemental Table 3)
Type: cell-based
Conditions: 60 agent PPTI screen
Experimental: Three chemical screens were applied to the U23674 primary tumor cell culture. […] The target inhibition profile is a quantified description of the inhibitory properties of the compound on the numerous protein targets preset on the PPTI screen.
To screen the chemical agents, cell cultures were plated in 384 well plates at a seeding density of 2000 cells per well over graded concentrations of the numerous compounds. The chemical concentrations were between 10 nM and […] depending on the activity range of the compounds. The cells were incubated in DMEM supplemented with 1% penicillin streptomycin, and 10% fetal bovine serum for 72 hours. Chemical sensitivity was determined by an MTS cell viability assay after the 72 hour incubation period. The sensitivity responses at the different concentrations were used to determine the chemical IC50 using a hill curve fitting algorithm with variable hill slope coefficients.

Structure (SMILES): Nc1ncn([C@H]2C[C@H](O)[C@@H](CO)O2)c(=O)n1 [decitabine]
- IC50 Value: >conc tested

Structure (SMILES): Cc1ccc(C(=O)Nc2ccc(CN3CCN(C)CC3)c(C(F)(F)F)c2)cc1C#Cc1cnc2cccnn12 [ponatinib]
- IC50 Value: >conc tested
